In patent US20070154905A1:
These are yes or no findings as the source states them, for the method shown. Some binding calls cover weakened binding; strength is not graded here.

Chains of the proteins cited; added tags and fusions are not shown. Lines headed by an entry give the natural chain unless they say otherwise; changes in a name come on top. Residues count along the entry.
UniProt Q13158: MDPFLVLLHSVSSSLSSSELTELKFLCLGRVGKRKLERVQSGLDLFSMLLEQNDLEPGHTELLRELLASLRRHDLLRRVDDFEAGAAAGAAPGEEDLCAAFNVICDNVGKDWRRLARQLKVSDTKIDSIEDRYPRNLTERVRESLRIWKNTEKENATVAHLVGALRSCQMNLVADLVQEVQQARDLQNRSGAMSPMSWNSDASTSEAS
intracellular domain of human p55 TNF receptor (residues 206-426) (P19438, residues 235-455): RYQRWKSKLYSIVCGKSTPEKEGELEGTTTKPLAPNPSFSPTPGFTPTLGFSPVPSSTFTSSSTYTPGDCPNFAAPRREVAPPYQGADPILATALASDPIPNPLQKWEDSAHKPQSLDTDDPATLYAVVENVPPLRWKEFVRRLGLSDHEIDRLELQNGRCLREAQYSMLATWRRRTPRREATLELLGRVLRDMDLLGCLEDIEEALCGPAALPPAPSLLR
p55 TNF-R death domain, residues 326-426 (P19438, residues 355-455): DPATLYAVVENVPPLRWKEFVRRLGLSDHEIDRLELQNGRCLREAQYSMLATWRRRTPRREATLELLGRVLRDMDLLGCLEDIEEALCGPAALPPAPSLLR

How the values were obtained:
[1] = target: MORT-1 fragment, amino acids 130-245 (C-terminal part with the death domain homology region) (human) (UniProt Q13158); assay: yeast two-hybrid, β-galactosidase expression
[2] = target: intracellular domain of human p55 TNF receptor (residues 206-426) (human) (UniProt P19438); assay: yeast two-hybrid, β-galactosidase expression
[3] = target: T1, MORT-1 protein (full-length) (human); assay: yeast two-hybrid, β-galactosidase expression
T1 sequence: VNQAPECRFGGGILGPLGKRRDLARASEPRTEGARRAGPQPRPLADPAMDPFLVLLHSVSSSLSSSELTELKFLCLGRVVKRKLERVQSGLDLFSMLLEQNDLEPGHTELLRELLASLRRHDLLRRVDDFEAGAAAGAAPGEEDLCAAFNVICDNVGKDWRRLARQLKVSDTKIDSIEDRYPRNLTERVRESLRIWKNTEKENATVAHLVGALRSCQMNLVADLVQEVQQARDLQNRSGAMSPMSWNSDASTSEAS

[4] = target: p55 TNF-R death domain, residues 326-426 (UniProt P19438); assay: yeast two-hybrid, β-galactosidase expression
[5] = target: intracellular domain of human p55 TNF receptor (residues 206-426) (human) (UniProt P19438); assay: yeast two-hybrid screen of a human B-cell library
[6] = target: T1, MORT-1 protein (full-length) (human); assay: yeast two-hybrid screen of a human B-cell library

Measured: binding

B1: MORT-1-binding protein of Example 2 (product of the two cDNA clones from the human B-cell library) (protein, UniProt Q15628 1-312, looked up)
chain: MAAGQNGHEEWVGSAYLFVESSLDKVVLSDAYAHPQQKVAVYRALQAALAESGGSPDVLQMLKIHRSDPQLIVQLRFCGRQPCGRFLRAYREGALRAALQRSLAAALAQHSVPLQLELRAGAERLDALLADEERCLSCILAQQPDRLRDEELAELEDALRNLKCGSGARGGDGEVASAPLQPPVPSLSEVKPPPPPPPAQTFLFQGQPVVNRPLSLKDQQTFARSVGLKWRKVGRSLQRGCRALRDPALDSLAYEYEREGLYEQAFQLLRRFVQAEGRRATLQRLVEALEENELTSLAEDLLGLTDPNGGLA
binds: all assays above
